From publication PMC12024540 (Biomolecules, 2025)
End groups of sequences in plain letters are not given here.

Test: general procedure: peptide synthesis; Rink amide (0.70 mmol/g loading capacity)
Details: whole synthesis

NHQVEEQLEWLSQRA
final HPLC purity: >99%
